From paper PMC10163288
Some of the results follow.

B1: il2ra_site2_2erj_normal_mot_HHH_b1_01555_af2_000000123_0001_22_39_H_._HHH_b1_04602_af2_0001_0000100002_0000001_0 (protein)
chain: SSSSDEEEREELKQIVEEIVEEFGLSERDRRDLEESARIALELGTSVELIERFLRLVAEDLSSSS
B2: il2ra_site2_2erj_normal_mot_90f6a21de4ed711cb697bb9f61d9c40c_0001_af2_000000135_0001_36_50_H_._HHH_b2_03327_0002_0000600026_0000001_0_af2pred_0001_af2pred (protein)
chain: SSSDREEVAKEVVERLVEELGLDEEAQRQLELSAELAIEAGASPEQIEQYLKLVAEYLLKQLSSS
B3: il2ra_site2_3nfp_normal_mot_HHH_b2_07498_000000293_0001_1_14_H_._HHH_b2_00131_af2_0001_0000100001_0000001_0 (protein)
chain: SSSSDEEEKLERLEERIKELEEKNDRFEALRLIAELTELAAKLNDEEVAELVLELYRELLSSSSS
B4: il2ra_site2_3nfp_normal_mot_b82ca2e1c409d160386ac3cc6d7ba40c_0001_000000212_0001_53_65_H_._3fb99943767767075383c8503bf007d5_0001_af2_0001_0000200020_0000001_0 (protein)
chain: DQEHEDAIKTAVESGNPNLLRLVEAALLALKLHGDPLFEELLELIEELVEEGNPIAEELLRRIEP
B5: il2ra_site1_3nfp_normal_mot_HHH_b1_08149_af2_000000062_0001_43_57_H_._97e99672e168623ff83a69b38e8865de_0001_1_0001_0000300024_0000001_0_af2pred_0001_af2pred_1 (protein)
chain: TAEELLEELVRIAVENNNPRLLRKILRALEAYLGDPEEAERKLEELIEKVLGDPEEAEELVRLAK
B6: il2ra_site1_1z92_sap_22_mot_HHH_b1_08467_af2_000000139_0001_42_58_H_._HHH_b2_01290_af2_0001_0000300012_0000001_0_0001_af2pred_0001_af2pred_1_swapped (protein)
chain: NLTAQDLEEAVEKNDEELLRKFIELLLRAAGDPHFVKRLLEALVKKLGLPPEVLERLRELLEELT
B7: il2ra_site1_2b5i_sap_16_mot_0d834090f7fba59af90d965c6e866d42_0001_1_000000125_0001_35_49_H_._HHH_b2_04217_af2_0001_0000100006_0000001_0_0001_af2pred_0001_af2pre … (protein)
chain: SSSSSNAERYLVRVIFELFHRLGLSVEQAKELARLAIELLERGVSEEEAEELLQELAKELSSSSS
B8: il2ra_site2_2erj_sap_21_mot_HHH_b1_00069_af2_000000103_0001_1_18_H_._HHH_b1_05528_af2_0001_0000500009_0000001_0_0001_af2pred_0001_af2pred (protein)
chain: SSSSDEIRRLYELAEELDKLLLEGDEEKVEELLEELEQLARETNTPSAEKVVRAIEKSLESSSSS
B9: il2ra_site2_3nfp_sap_24_mot_HHH_b1_00050_000000292_0001_22_38_H_._HHH_b1_02222_af2_0001_0000900024_0000001_1_0001 (protein)
chain: SSSSDDEKLERMVELAIRTAEKRGDEEVLEELRRLLEEAREEGDFRLLLEAYALIAEALQRSSSS
B10: il2ra_site2_3nfp_sap_16_mot_HHH_b1_05400_af2_000000127_0001_43_57_H_._5fa2c1a30f04debedfe40931e4d0b367_0001_0001_0000200007_0000001_1_0001 (protein)
chain: SSSSSKAERYVEVALKVAELALRDGDPEVARRIVELAEQAARSQNNEELEEEIEELQEKINSSSS
B11: il2ra_site2_2erj_normal_mot_HHH_b2_01204_af2_000000056_0001_19_34_H_._HHH_b2_01455_af2_0001_0000300029_0000001_0 (protein)
chain: SSSDLEEELEELVEKLVEELGLSELAKRYLQRVVEALLEAGVDEEHARKALEESARQIAEGSSSS
B12: il2ra_site2_2erj_sap_26_mot_ca9fcc9ace360711d783d1260e4fbff1_0001_1_af2_000000007_0001_15_32_H_._HHH_b2_06363_0001_0000100021_0000001_0_0001 (protein)
chain: SSSSSSNDESLRVWELLREFAHAKSEEEREELEREVRELVEELNDNLLARFVELALRLHSSSSSS
B13: il2ra_site2_3nfp_sap_24_mot_HHH_b2_00444_000000178_0001_41_57_H_._HHH_b2_06761_0001_0000200019_0000001_0_0001 (protein)
chain: SSSSSSEAEEYVRAALELLKRIKDEELFERHFELIELAIESQGDEELEELLREIEEKYRSSSSSS
B14: il2ra_site2_2erj_normal_mot_HHH_b2_06545_000000262_0001_21_37_H_._HHH_b1_02645_0001_0000200009_0000001_0 (protein)
chain: SSSSSEEEVEELIKEAEQLLEEGDPEKAEEVLSRAFELAYEVNDPELASRVIELMALIAKSSSSS
B15: il2ra_site2_2erj_sap_19_mot_HHH_b2_00505_000000221_0001_1_17_H_._HHH_b1_08169_0001_0000200013_0000001_1_0001 (protein)
chain: SSSSSEWLHRSYKLANELMHLLARGDEEEFERLVEEIEKFAEERDNKVLKEIVESLHRLFNSSSS
B16: il2ra_site2_3nfp_sap_17_mot_HHH_b1_04762_000000120_0001_42_54_H_._HHH_b1_06359_0001_0000300027_0000001_0_0001 (protein)
chain: SSSSDEEELERLLEEVEELIKQGNLEEAEQLIMRIAHIAWELGDHEVFARLTELLEEIIRLSSSS
B17: il2ra_site2_2erj_sap_33_mot_d513a5c7d2e7ced7c66e00d3c8df735a_0001_000000137_0001_35_49_H_._HHH_b1_03847_af2_0001_0000300017_0000001_0_0001 (protein)
chain: SSSSSDLHELYRLAVELMHALANGDEELFEELAEEVEKLARELNSENVEEFIERLQRKLHSSSSS
B18: il2ra_site2_3nfp_sap_15_mot_HHH_b1_04032_000000208_0001_43_56_H_._HHH_b2_02140_0001_0001900057_0000001_0_0001_af2pred_0001_af2pred (protein)
chain: TEEIERVVRSVLRYIPDPEEARELLKRLRELLKRDPKEALELALELAEELGDPYLRELLERLLEK
B19: il2ra_site2_3nfp_normal_mot_HHH_b1_00660_af2_000000090_0001_40_57_H_._HHH_b2_03957_0001_0000500035_0000001_0_af2pred_0001_1_af2pred_swapped (protein)
chain: SSSSDVEEQVRELLEEAEELLRRGNPEEAEEVLRRASDLAYEARDEELVHLILELLEKVEGSSSS
B20: il2ra_site1_3nfp_sap_8_mot_9410bc1eedee1757c7b766bec531e3ee_0001_1_000000027_0001_33_48_H_._HHH_b1_02973_0001_0000500027_0000001_0_0001_af2pred_0001_af2pred (protein)
chain: SSSSSSEFSRRVDELIRLLLKARSEEEIERVFEEVRRLAEEANDPLAKRLVELAYRLARSSSSSS
B21: il2ra_site1_2b5i_normal_mot_HHH_b1_01949_af2_000000166_0001_1_19_H_._HHH_b1_03840_af2_0001_0000200016_0000001_0_af2pred_dldesign_0_af2pred (protein)
chain: SSSSTPEEDKIYELYKEALELVRQGKKEEAKKVLEEALELAKKAKDEKAVAEIEYLLEKLSSSSS
B22: il2ra_site1_2b5i_normal_mot_HHH_b1_02271_000000068_0001_1_16_H_._HHH_b1_06299_0001_0000300016_0000001_0_af2pred_dldesign_0_af2pred (protein)
chain: SSSSSSRLEKLKRVEELLHQYEQAETEEERAELEAEIRALAAELKDPVVERAIEEAREERSSSSS
B23: il2ra_site2_3nfp_normal_mot_HHH_b1_02297_000000279_0001_41_58_H_._c393a752425a4fe2e67a9f8335af7c62_0001_1_0001_0000200007_0000001_1 (protein)
chain: SKAEEAERVAKNLNDPEAEEIVRLVKELEEEGDPEKLRELLARVLREAYERRNFELFAVINILVN
B24: il2ra_site2_2erj_normal_mot_HHH_b2_08201_000000058_0001_20_36_H_._HHH_b2_00201_af2_0001_0000100005_0000001_0 (protein)
chain: SSSSSEVEELLKEAKELLEEGNPEEAEEVLSRAFELAYRLGDEELFNEIVELFELIIELEHSSSS

Each binder was assayed against il2ra, P01589 (assay: yeast display titration).

Apparent Kd, inactive:
B1 no binding seen
B2 no binding seen
B3 no binding seen
B4 no binding seen
B5 no binding seen
B6 no binding seen
B7 no binding seen
B8 no binding seen
B9 no binding seen
B10 no binding seen
B11 no binding seen
B12 no binding seen
B13 no binding seen
B14 no binding seen
B15 no binding seen
B16 no binding seen
B17 no binding seen
B18 no binding seen
B19 no binding seen
B20 no binding seen
B21 no binding seen
B22 no binding seen
B23 no binding seen
B24 no binding seen

Taken from above for reference:
Apparent Kd, inactive:
B23 no binding seen
B24 no binding seen
